Results reported in US11957728B2, “Compositions for targeting receptor for advanced glycation end-products (RAGE) in a chronic inflammatory condition” (Sami-Sabinsa Group Limited, priority 2020, dated 2024).
At least one structure is not confirmed: it was looked up by name or label, or the drawing left a doubt.

Test system: glycation
Test: Anti-glycation activity of curcuminoids at 24 and 72 hrs (320/405)
Type: biochemical

COc1cc(/C=C/C(O)=C/C(=O)/C=C/c2ccc(O)cc2)ccc1O [DMC, demethoxycurcumin]
Anti-Glycation activity (24 hrs (320/405), Conc 0.3125 mg/mL): 73.81
Anti-Glycation activity (24 hrs (320/405), Conc 0.625 mg/mL): 84.98
Anti-Glycation activity (72 hrs (320/405), Conc 0.625 mg/mL): 57.71
